# The supplement of paper PMC10849652
# By UniProt entry, the sequences of proteins in these tests, tags left out. Where a name states a change or a piece, a line headed by the entry shows the natural chain unless it says otherwise.
# UniProt O95147: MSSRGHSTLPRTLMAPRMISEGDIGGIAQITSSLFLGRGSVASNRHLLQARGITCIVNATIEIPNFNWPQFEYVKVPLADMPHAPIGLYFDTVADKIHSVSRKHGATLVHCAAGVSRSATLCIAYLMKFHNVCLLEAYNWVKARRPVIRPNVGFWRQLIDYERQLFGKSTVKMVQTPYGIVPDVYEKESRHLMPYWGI
# UniProt Q08426: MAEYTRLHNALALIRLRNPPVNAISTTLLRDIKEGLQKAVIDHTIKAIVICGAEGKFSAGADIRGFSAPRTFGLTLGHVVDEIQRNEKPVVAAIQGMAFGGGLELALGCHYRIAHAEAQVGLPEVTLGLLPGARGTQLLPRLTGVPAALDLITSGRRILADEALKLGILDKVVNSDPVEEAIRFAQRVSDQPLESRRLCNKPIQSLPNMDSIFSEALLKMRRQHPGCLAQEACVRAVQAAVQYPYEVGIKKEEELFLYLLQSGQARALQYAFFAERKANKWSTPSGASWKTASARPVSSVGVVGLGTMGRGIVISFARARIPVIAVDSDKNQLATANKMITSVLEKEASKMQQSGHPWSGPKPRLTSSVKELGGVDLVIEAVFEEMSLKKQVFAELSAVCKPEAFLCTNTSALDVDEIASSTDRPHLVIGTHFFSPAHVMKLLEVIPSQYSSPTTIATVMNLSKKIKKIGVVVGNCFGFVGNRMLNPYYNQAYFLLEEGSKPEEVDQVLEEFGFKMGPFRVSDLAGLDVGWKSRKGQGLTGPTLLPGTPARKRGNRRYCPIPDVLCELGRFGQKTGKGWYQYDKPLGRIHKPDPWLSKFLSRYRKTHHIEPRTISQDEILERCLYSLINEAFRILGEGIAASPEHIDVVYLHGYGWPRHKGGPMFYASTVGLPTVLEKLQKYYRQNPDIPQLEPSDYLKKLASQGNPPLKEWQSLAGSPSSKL
# UniProt Q8WVE0: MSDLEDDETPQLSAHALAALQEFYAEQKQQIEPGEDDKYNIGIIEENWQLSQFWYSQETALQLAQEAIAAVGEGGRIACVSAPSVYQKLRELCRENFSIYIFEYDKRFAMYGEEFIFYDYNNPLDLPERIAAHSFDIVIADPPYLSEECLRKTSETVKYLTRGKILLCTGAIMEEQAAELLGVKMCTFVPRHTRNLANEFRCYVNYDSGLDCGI
# UniProt Q6V1X1: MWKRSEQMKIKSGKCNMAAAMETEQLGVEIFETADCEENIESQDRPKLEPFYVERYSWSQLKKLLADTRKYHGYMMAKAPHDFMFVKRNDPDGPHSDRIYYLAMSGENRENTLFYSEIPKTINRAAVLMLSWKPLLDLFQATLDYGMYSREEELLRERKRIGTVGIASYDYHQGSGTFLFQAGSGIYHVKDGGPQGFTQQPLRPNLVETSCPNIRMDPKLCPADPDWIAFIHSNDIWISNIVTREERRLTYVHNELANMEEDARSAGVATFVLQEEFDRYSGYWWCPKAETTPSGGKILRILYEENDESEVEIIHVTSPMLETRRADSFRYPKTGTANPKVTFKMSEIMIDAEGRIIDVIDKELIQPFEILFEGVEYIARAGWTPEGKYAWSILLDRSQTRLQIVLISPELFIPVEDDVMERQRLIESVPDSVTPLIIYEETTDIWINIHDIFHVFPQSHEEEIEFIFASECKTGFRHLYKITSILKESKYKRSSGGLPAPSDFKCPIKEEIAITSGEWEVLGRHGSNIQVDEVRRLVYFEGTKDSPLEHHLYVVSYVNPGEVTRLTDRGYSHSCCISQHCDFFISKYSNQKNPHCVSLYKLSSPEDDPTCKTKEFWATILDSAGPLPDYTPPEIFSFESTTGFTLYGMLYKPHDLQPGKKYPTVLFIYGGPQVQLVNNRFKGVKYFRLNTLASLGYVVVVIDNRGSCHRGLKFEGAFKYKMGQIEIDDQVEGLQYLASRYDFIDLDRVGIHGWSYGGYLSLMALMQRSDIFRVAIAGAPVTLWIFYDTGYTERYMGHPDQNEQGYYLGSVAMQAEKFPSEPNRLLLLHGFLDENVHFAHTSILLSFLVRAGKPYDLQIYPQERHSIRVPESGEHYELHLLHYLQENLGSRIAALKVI
# UniProt Q86UW9: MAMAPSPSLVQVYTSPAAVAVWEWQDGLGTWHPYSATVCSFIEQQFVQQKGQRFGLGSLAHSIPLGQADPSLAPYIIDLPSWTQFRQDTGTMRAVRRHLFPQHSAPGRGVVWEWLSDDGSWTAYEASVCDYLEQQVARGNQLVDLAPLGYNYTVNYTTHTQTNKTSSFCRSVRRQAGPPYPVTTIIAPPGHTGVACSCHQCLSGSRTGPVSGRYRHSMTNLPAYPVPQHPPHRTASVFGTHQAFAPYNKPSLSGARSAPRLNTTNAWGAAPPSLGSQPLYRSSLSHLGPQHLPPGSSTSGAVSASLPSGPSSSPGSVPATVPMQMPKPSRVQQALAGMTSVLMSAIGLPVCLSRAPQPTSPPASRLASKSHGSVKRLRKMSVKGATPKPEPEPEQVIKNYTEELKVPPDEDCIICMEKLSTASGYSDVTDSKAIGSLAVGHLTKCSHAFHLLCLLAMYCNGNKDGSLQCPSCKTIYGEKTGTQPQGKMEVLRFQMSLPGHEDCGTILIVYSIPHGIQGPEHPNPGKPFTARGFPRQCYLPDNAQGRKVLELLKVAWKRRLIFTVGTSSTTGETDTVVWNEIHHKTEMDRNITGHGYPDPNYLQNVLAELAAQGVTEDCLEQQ
# UniProt P63167, whole entry, looked up: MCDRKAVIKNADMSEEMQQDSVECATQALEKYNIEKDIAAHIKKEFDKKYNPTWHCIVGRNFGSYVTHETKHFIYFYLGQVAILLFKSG
# UniProt P98172: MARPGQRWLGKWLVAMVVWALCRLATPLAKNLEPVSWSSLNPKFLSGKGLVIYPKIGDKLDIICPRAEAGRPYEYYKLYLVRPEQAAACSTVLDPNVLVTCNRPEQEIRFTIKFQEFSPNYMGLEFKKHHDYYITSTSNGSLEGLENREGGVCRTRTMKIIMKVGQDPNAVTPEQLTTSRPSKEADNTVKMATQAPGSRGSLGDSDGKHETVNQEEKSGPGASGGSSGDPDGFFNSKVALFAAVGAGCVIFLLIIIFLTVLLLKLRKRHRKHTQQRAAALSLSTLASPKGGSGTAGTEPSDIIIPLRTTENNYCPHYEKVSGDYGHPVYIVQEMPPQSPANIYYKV
# UniProt Q7Z388: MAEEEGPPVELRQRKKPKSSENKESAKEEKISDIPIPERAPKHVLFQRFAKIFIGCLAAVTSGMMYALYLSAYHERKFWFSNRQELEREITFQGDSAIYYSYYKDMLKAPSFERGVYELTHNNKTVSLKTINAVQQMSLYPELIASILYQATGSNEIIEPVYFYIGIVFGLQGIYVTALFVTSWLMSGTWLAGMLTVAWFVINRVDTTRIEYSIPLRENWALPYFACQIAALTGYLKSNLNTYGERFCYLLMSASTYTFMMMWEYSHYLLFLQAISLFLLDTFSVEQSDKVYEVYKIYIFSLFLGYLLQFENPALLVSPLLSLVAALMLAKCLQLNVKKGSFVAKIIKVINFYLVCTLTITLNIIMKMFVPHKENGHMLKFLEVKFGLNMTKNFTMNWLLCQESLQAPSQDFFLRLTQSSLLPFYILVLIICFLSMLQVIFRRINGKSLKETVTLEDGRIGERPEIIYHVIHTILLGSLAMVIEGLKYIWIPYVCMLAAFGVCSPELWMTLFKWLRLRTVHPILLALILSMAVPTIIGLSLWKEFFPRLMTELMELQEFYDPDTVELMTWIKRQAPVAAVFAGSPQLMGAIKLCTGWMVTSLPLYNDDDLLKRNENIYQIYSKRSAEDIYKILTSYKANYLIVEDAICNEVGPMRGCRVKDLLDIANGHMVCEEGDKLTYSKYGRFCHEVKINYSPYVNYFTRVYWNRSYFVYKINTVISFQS
# UniProt O14576, whole entry, looked up: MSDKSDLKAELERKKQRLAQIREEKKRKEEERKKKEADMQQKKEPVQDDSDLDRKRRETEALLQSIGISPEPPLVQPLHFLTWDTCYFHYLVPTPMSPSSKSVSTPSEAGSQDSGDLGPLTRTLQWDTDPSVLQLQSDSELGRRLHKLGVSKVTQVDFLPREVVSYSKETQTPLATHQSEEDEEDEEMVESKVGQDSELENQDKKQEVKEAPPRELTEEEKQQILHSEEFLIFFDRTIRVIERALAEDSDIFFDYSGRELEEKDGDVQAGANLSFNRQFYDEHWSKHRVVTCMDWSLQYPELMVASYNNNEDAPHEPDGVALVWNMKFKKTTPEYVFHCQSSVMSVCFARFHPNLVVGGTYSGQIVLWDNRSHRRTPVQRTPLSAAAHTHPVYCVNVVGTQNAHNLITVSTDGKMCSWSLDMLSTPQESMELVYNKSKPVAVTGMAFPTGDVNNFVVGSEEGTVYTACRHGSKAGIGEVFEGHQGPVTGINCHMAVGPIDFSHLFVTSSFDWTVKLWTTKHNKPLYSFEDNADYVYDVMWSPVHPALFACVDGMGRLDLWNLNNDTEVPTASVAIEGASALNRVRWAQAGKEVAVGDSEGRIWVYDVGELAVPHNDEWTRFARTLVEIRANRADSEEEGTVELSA
# UniProt P0DPD7: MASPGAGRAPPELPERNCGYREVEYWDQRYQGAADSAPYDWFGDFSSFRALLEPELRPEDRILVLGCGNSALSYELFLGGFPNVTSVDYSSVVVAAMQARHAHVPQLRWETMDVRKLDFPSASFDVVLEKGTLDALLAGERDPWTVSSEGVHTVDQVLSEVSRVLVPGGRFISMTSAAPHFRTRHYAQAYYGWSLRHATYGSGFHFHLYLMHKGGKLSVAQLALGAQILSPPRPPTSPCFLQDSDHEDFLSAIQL
# UniProt Q9P2X0: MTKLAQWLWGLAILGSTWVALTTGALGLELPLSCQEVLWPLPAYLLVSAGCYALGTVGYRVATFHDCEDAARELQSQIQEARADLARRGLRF
# UniProt P51808: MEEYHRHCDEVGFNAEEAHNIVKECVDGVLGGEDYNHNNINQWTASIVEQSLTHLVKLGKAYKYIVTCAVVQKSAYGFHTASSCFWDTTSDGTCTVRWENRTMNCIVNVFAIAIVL
# UniProt Q6UX65: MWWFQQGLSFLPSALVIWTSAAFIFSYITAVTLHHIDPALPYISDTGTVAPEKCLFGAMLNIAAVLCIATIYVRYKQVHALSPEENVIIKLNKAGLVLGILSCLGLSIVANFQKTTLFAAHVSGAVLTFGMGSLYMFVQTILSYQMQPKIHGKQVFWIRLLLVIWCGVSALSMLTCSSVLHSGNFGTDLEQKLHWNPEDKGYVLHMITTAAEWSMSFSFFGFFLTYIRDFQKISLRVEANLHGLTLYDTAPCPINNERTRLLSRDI
# UniProt Q5VUJ9: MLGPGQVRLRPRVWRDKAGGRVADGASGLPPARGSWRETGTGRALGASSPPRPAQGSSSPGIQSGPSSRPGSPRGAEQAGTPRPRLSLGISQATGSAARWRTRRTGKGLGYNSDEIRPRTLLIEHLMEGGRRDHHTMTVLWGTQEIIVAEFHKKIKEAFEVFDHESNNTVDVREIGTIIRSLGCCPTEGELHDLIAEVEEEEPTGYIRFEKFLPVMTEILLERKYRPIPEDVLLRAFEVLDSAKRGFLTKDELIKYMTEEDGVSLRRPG
# UniProt Q96KS0, whole entry, looked up: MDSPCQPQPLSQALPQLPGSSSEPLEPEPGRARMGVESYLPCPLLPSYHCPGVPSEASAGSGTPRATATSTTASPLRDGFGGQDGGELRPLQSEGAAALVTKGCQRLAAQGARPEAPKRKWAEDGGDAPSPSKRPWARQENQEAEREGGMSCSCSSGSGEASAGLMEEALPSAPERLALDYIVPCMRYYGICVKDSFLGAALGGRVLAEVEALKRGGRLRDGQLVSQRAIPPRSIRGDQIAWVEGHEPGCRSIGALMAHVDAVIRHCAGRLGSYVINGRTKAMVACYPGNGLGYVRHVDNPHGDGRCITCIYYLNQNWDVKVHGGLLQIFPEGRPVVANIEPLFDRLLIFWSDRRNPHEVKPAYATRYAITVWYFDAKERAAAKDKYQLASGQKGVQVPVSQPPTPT
# UniProt Q92997: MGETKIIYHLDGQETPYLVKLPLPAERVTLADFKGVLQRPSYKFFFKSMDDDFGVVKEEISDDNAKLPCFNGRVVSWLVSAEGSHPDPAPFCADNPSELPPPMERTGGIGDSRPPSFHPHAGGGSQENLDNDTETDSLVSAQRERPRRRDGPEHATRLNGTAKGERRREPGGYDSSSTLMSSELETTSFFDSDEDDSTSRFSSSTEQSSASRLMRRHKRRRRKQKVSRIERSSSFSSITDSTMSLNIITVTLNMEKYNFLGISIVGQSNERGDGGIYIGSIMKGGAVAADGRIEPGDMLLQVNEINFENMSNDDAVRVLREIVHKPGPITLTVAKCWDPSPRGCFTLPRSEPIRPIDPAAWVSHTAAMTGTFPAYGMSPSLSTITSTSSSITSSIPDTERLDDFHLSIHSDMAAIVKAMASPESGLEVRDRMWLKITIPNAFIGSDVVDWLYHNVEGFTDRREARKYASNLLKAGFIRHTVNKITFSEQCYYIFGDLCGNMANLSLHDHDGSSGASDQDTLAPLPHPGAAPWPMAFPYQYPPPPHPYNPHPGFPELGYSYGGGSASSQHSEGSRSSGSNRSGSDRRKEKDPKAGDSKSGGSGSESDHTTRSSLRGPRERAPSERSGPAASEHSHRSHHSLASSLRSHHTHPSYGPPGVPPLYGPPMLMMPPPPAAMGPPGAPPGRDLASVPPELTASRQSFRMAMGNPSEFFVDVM
# The list shows a part of the results.
# Compound: Cc1sc2c(c1C)C(c1ccc(Cl)cc1)=N[C@@H](CC(=O)OC(C)(C)C)c1nnc(C)n1-2
# Assay: log2 fold change, soluble protein after heating vs DMSO (PISA); higher = thermal stabilisation; K562 lysate, 10 uM; active = over 0.2 and 3.5 SD of the protein, either way, in both replicates (recomputed)
# Outline: (§1)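 Values give the log-two fold change in thermal stability against solvent controls, from duplicates. Crude K562 extract at 1 mg/mL protein, made by dounce homogenisation in PBS pH 7.4 with 1 mM MgCl2, was treated with 10 μM compound for 30 min. After 3 min heating across 48°C-58°C, aliquots were pooled, adjusted to 0.5% NP-40 at 4°C and centrifuged at 21,000xg for 90 min. The supernatant was measured by TMTpro 16plex LC-MS/MS with channel sums equalised.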
row,Target,log2 fold change
1,DUSP14 (UniProt O95147),inactive: -0.449
2,EAF1 (UniProt Q96JC9),inactive: 0.019
3,EHHADH (UniProt Q08426),inactive: -0.086
4,DTYMK (UniProt P23919),inactive: -0.096
5,DUSP12 (UniProt Q9UNI6),inactive: 0.018
6,DRAP1 isoform 2 (UniProt Q14919),inactive: 0.015
7,EEF1AKMT1 (UniProt Q8WVE0),inactive: 0.017
8,ECPAS (UniProt Q5VYK3),inactive: 0.007
9,DPP8 (UniProt Q6V1X1),inactive: -0.095
10,DTX2 (UniProt Q86UW9),inactive: 0.003
11,EEF2KMT (UniProt Q96G04),inactive: -0.054
12,DYNLL1 (UniProt P63167),inactive: -0.01
13,EFNB1 (UniProt P98172),inactive: -0.031
14,EID1 (UniProt Q9Y6B2),inactive: 0.024
15,DPY30 (UniProt Q9C005),inactive: 0.004
16,ECHDC1 (UniProt Q9NTX5),inactive: -0.036
17,DYNC1LI2 (UniProt O43237),inactive: -0.112
18,DUS4L (UniProt O95620),inactive: 0.055
19,DPY19L4 (UniProt Q7Z388),inactive: -0.016
20,EEF1A1P5 (UniProt Q5VTE0),inactive: -0.067
21,DYNC1I1 (UniProt O14576),inactive: -0.055
22,EDEM2 (UniProt Q9BV94),inactive: -0.076
23,EEF1AKMT4 (UniProt P0DPD7),inactive: 0.017

# Compound: c1ccc([C@@H]2C[C@H]2NC2CCNCC2)cc1
# Assay: as above
# Outline: as §1
row,Target,log2 fold change
1,DTWD2 (UniProt Q8NBA8),inactive: 0.068
2,DUSP14 (UniProt O95147),inactive: 0.044
3,DUSP19 (UniProt Q8WTR2),inactive: -0.253
4,DPM3 isoform 2 (UniProt Q9P2X0),inactive: 0.078
5,EAF1 (UniProt Q96JC9),inactive: -0.055
6,EHHADH (UniProt Q08426),inactive: 0.031
7,DYNLT3 (UniProt P51808),inactive: -0.047
8,DSTYK (UniProt Q6XUX3),inactive: 0.048
9,DTYMK (UniProt P23919),inactive: 0.098
10,DUSP12 (UniProt Q9UNI6),inactive: 0.003
11,DRAM2 (UniProt Q6UX65),inactive: -0.131
12,DRAP1 isoform 2 (UniProt Q14919),inactive: -0.015
13,DSCAML1 (UniProt Q8TD84),inactive: -0.129
14,ECPAS (UniProt Q5VYK3),inactive: 0.047
15,DPP8 (UniProt Q6V1X1),inactive: 0.073
16,DTX2 (UniProt Q86UW9),inactive: 0.079
17,EEF2KMT (UniProt Q96G04),inactive: -0.167
18,DYNLL1 (UniProt P63167),inactive: -0.051

row,Target,log2 fold change
1,DUSP12 (UniProt V9GYV5),inactive: 0.048
2,EFNB1 (UniProt P98172),inactive: -0.074
3,EID1 (UniProt Q9Y6B2),inactive: -0.022
4,DPY30 (UniProt Q9C005),inactive: 0.286
5,ECHDC1 (UniProt Q9NTX5),inactive: -0.009
6,DYNC1LI2 (UniProt O43237),inactive: 0.008
7,EFCAB2 isoform 2 (UniProt Q5VUJ9),inactive: -0.116
8,DUS4L (UniProt O95620),inactive: -0.039
9,EGLN2 (UniProt Q96KS0),inactive: -0.189
10,DPY19L4 (UniProt Q7Z388),inactive: -0.025
11,EEF1A1P5 (UniProt Q5VTE0),inactive: -0.036
12,DYNC1I1 (UniProt O14576),inactive: 0.129
13,EDEM2 (UniProt Q9BV94),inactive: 0.005
14,DSG3 (UniProt P32926),inactive: -0.265
15,DVL3 (UniProt Q92997),inactive: 0.27
16,DST isoform 3 (UniProt Q03001),inactive: 0.586
17,EEF1AKMT4 (UniProt P0DPD7),inactive: -0.063
18,DYRK1A isoform 2 (UniProt Q13627),inactive: -0.339
